For 42 sequences, binding signal results are on record in paper PMC7819943, “Rice protein-binding microarrays: a tool to detect cis-acting elements near promoter regions in rice”.

Sequences of proteins named here, by UniProt entry; tags and fusion partners are left off.
UniProt Q0JBA9, entry or part of it: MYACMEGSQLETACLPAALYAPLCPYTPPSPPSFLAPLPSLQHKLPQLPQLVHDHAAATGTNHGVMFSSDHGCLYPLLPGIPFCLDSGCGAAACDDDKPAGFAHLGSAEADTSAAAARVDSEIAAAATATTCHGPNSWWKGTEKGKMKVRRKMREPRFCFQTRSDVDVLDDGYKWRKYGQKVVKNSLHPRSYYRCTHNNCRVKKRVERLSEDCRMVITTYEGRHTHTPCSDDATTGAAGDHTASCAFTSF

The other results are listed elsewhere or left out.

For the assay, the target named is OsWRKY34 (Oryza sativa, UniProt Q0JBA9 1-250). In words: protein-binding microarray (RPBM); PBS, 2% BSA, 51.3 ng/ul salmon testes DNA, 50 uM zinc acetate, 200 nM TF, 25 C, 1 h; high values mean tight binding. To be noted: protein: recombinant; tags: N-terminal polyhistidine and DsRed monomer fusion (pET32a); label: CyDye5-dUTP incorporated in the synthesized complementary strand; 3' TTTTT single-stranded linker to array surface; dsDNA, one strand shown. In a few lines:
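For the binding signal, per-feature fluorescence intensity was read in arbitrary units on an Axon 4000B scanner. Before scanning, a 2% BSA-blocked custom Agilent array made double-stranded with Cy5-dUTP was washed after 1 h at 25 °C with 200 nM protein and 50 µM zinc acetate. The proteins were Ni–NTA-purified transcription factors with N-terminal polyhistidine and DsRed fusions, expressed in E. coli BL21-CodonPlus.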
Regarding “TTGCGTTGACACTTGAACACGCTTCGCTTTGGTTTTGGTCCGGAGTCACCTAGTGCAG”, the binding signal is 8340 fluorescence intensity (a.u.). With “GGCCCATTCTTCTCCGACCAACAATACCTGCGCTTTCCATCGGAGTCACCTAGTGCAG” the figure was 11800 fluorescence intensity (a.u.).

As to “CGTACTTCTAAATCTTTTCCATTTCCTTCCCTTTGGAAAACGGAGTCACCTAGTGCAG”, the binding signal was 8440 fluorescence intensity (a.u.). Consider “GGGTTCAGAAATAGGTGGTGGATAACAATCTGCAGCAGAACGGAGTCACCTAGTGCAG”, for which the binding signal is 8420 fluorescence intensity (a.u.). Consider “TTGGGGTTGGACCGGTTTTCATCTGTTCTTGTCCTGAGAGCGGAGTCACCTAGTGCAG”, for which the binding signal is 10800 fluorescence intensity (a.u.). In the case of “ATCAGCATTTGCATCACCTTCATCAATCCTCTGCTTGGTACGGAGTCACCTAGTGCAG” it was 9350 fluorescence intensity (a.u.); in that of “AAAATTTAAATTTTGACTTTTGCTTATTGATTTTTAGTTCCGGAGTCACCTAGTGCAG”, 10200 fluorescence intensity (a.u.).

“ACAAATTGCGCGCTCCACGGCCTATATTCGGCCCAACCTGCGGAGTCACCTAGTGCAG”: the binding signal was 9760 fluorescence intensity (a.u.).

With “GACTCTGAACCATTTCCATCTGGATTCAGGTTTATGCTGTCGGAGTCACCTAGTGCAG”, the binding signal is 8130 fluorescence intensity (a.u.). In the case of “GTTCATTATTGCCGTTTACTAATACCATGTCCACACGGCCCGGAGTCACCTAGTGCAG” it was 9710 fluorescence intensity (a.u.). “GCAACCACTGTCTCGCTCTCCGCCGCCATCGCCGCCGCCGCGGAGTCACCTAGTGCAG”: the binding signal was 10500 fluorescence intensity (a.u.). Take “TATATATATATATATATATATATAATGTTTCATCACCTGTCGGAGTCACCTAGTGCAG”: the binding signal was 11400 fluorescence intensity (a.u.). In the case of “TTCCCTTCTGCCGTACTGTTTCAAATCTCAACCATTTGTACGGAGTCACCTAGTGCAG”, the binding signal is 10400 fluorescence intensity (a.u.). With “AAATCACATACTCTTTCTTCTTCTTTTTGTTGTATGAAGTCGGAGTCACCTAGTGCAG” the figure was 10100 fluorescence intensity (a.u.). With “CCAAATCAATCAGCCACCTCCAGTGCGTCGTTCTCTCGACCGGAGTCACCTAGTGCAG” the figure was 8410 fluorescence intensity (a.u.); with “GTAGTCTTTTTCTTCTTTGTACTTATCGTTTAAAAATTGACGGAGTCACCTAGTGCAG”, 8230 fluorescence intensity (a.u.); with “CTCGGGAGAGGGGAGGCGTAGATTCTTCTGTTGCTTCAGTCGGAGTCACCTAGTGCAG”, 10300 fluorescence intensity (a.u.). For “CTTCCAATTCATTCTATAGTCTGTACAACTATAACTTTTACGGAGTCACCTAGTGCAG”, the binding signal was 9330 fluorescence intensity (a.u.). For the sequence “GATCTGGTGTGTTAATTTGGATTTGTGTTTGTCCTTTTTCCGGAGTCACCTAGTGCAG”, the binding signal is 14800 fluorescence intensity (a.u.). For the sequence “AACACAGCACCTAGTACCGCATGATCACCTATATATACACCGGAGTCACCTAGTGCAG”, the binding signal was 12300 fluorescence intensity (a.u.). As to “TGAGAACAACCTGAACCTCACAACTCGTACTATCCCTTTGCGGAGTCACCTAGTGCAG”, the binding signal is 8440 fluorescence intensity (a.u.).

For “ACGATACATCGGTGCGGTTTGGTTTGGTGAATCCTCCTCGCGGAGTCACCTAGTGCAG”, the binding signal was 8100 fluorescence intensity (a.u.). On to “GGTCGCTGTCGTTGGCGGGTGCGGGGAGGTGGCGGTTACGCGGAGTCACCTAGTGCAG”, for which the binding signal was 12600 fluorescence intensity (a.u.). With “TACCCGTGACCAACCCGACCCGTTGCCATCCCTATTTAGGCGGAGTCACCTAGTGCAG” the figure was 8720 fluorescence intensity (a.u.). In the case of “CGGAGATCCGCGGCGAGGAGGGGAGGGAGGGGAAGCAAGCCGGAGTCACCTAGTGCAG” it was 10600 fluorescence intensity (a.u.); in that of “CCGATACCGTATCGCTCGCGTATCCCACGTATCGCCGTATCGGAGTCACCTAGTGCAG”, 8130 fluorescence intensity (a.u.); in that of “TTGTTCATTATACCGGTGGTTATAGTTGGATTCAGGTGTACGGAGTCACCTAGTGCAG”, 8500 fluorescence intensity (a.u.). For “CCCAAAGTCAACCACATACGTGCTGTTGTGTAGTCACATTCGGAGTCACCTAGTGCAG”, the binding signal is 9330 fluorescence intensity (a.u.). In the case of “TTGGTAGTGTTGGTTGTGTTTAGTTTGTTAACTTATCAAACGGAGTCACCTAGTGCAG” it was 8690 fluorescence intensity (a.u.). With “CCTCTACAACCACCCACTATCGTTGCCACCTCCCACAAACCGGAGTCACCTAGTGCAG” the figure was 12300 fluorescence intensity (a.u.); with “TTCCTACTGTATCTGCGTCGTGATATGATCTCTAACTTTGCGGAGTCACCTAGTGCAG”, 9330 fluorescence intensity (a.u.). With “CACGCTCGCCTTCATCGCCGCTCTGTTCAACGAGGAGCTCCGGAGTCACCTAGTGCAG” the figure was 10700 fluorescence intensity (a.u.); with “TCCTGCAATCTCACATTTGTCGAACCTAGCAGAACTTTACCGGAGTCACCTAGTGCAG”, 9760 fluorescence intensity (a.u.). For the sequence “TATCGCGTTACTGGTATGTTCCTGTTCCTGACATTCATGACGGAGTCACCTAGTGCAG”, the binding signal was 13600 fluorescence intensity (a.u.). Regarding “TCTACCTGGCCCCACATGTCATCCACTCGTGCTACGCAGCCGGAGTCACCTAGTGCAG”, the binding signal was 9910 fluorescence intensity (a.u.). With “TCGGCCCGAGCGGTGGCGGTGGCGGTGGCGGAGGAGGAGGCGGAGTCACCTAGTGCAG”, the binding signal is 10100 fluorescence intensity (a.u.). With “AGCCGTCACATTTTCCAGACTCCACACTGCCACCTTGTGCCGGAGTCACCTAGTGCAG” the figure was 8410 fluorescence intensity (a.u.); with “AGCTCTTTCTATGCGTTACCGCCTGCGTGCAGCCGTTCTTCGGAGTCACCTAGTGCAG”, 9190 fluorescence intensity (a.u.); with “TCTGCTTCACTGTATTTTTGTCCAACAATTCCATGACATGCGGAGTCACCTAGTGCAG”, 8550 fluorescence intensity (a.u.). With “TGCGGCAAGGACTCCGCTGCCTGCTCACCACCATCACGCACGGAGTCACCTAGTGCAG” the figure was 8100 fluorescence intensity (a.u.). In the case of “CTTCACAGGCTTCAGGCCTCTTGTTGACCATGACCTAACTCGGAGTCACCTAGTGCAG” it was 10000 fluorescence intensity (a.u.); in that of “AGGCTGTGTTTTTTTTGGAGGGGTTGAAAATCCTTCCCATCGGAGTCACCTAGTGCAG”, 12100 fluorescence intensity (a.u.).
